In publication PMC8927971:
For some of these results: A weaker result is weaker than the reference pair of the same experiment. Where a protein sequence is shown, tags need not be part of it.

How the values were obtained:
[1] = target: T1, CIZ1 N571ΔPLD1 del1-67 (Mus musculus) (UniProt F6ZP34); experiment: EMSA; details: 0.3 nM RNA, massively impaired, 10 mM Tris-HCl pH 7.5, 30 mM NaCl, 2.5 mM MgCl2, 0.2 mM DTT, 0.1% IGEPAL CA-630, 0.1 mg/ml yeast tRNA, 0.4 U RNaseOUT, 1% glycerol, 30 C 20 min, recombinant protein, residues 68-571, protein details: GST (N-term), label: digoxigenin-11-UTP (1:15 with UTP), probe letters rebuilt from the primers and the genome
T1 sequence (looked up): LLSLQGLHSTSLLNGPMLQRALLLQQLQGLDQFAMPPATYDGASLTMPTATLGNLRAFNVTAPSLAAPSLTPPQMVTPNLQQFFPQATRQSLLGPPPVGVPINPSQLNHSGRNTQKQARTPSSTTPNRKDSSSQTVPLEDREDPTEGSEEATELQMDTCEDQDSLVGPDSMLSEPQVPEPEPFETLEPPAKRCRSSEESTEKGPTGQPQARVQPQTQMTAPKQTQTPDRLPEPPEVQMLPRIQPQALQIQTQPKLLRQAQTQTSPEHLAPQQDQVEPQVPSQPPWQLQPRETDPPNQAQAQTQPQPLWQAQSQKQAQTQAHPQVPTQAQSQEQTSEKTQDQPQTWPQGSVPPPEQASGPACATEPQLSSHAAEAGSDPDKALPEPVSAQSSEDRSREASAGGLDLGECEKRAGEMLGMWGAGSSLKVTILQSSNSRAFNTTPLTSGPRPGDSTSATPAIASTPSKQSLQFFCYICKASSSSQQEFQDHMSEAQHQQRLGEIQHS

[2] = target: T2, CIZ1 N571ΔPLD2 del361-399 (Mus musculus) (UniProt F6ZP34); experiment: EMSA; details: 0.3 nM RNA; 10 mM Tris-HCl pH 7.5, 30 mM NaCl, 2.5 mM MgCl2, 0.2 mM DTT, 0.1% IGEPAL CA-630, 0.1 mg/ml yeast tRNA, 0.4 U RNaseOUT, 1% glycerol; 30 C 20 min; recombinant protein; residues 1-571; protein details: GST (N-term); label: digoxigenin-11-UTP (1:15 with UTP); probe letters rebuilt from the primers and the genome
T2 sequence (looked up): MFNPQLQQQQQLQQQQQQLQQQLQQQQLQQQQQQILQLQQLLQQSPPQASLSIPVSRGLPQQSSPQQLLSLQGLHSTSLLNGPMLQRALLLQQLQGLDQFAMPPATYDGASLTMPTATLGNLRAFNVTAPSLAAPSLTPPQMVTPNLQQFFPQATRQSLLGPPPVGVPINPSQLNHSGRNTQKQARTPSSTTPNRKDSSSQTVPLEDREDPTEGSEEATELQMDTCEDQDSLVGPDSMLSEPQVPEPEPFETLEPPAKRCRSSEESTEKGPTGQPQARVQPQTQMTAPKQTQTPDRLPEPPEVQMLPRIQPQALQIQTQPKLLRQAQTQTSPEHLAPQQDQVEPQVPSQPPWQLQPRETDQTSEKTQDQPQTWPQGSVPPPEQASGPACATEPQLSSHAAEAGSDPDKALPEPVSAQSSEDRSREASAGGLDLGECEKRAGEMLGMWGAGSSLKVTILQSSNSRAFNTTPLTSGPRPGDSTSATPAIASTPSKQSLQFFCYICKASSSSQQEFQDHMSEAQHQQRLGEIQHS

Sequence	binding result ([1]; less than for repeat A)	half-maximal binding [2]	binding result ([1]; more than for repeat E)
GGGAGAUUUCUUCCUUGCAGUUGUGUCUAAUUCUUUGUUACAUCUAUUUCUUCCUUGCUUUUGUGUGUCUAUUUCUUCCUUGCAUUGUGUCUAAUUCUUUGGUAUAUAUAUUUCUUCAUUGCUUUGUGUGUCUAUGUCUCCUUGUGUUGUCUAAUUCGUUGUUGCAUCUAUUUCUUCCUUGCUUUGUGUGUCUAUUUCUUCCUUGCUUUGUGUGUCUAUGUCUUCCUUGCUUUGUGUGUCUAUGUCUUCCUUGUUUUGUGUAUCUACUUCUUCCUUGUGUGUCUAAUUCUUUGUUACAUCUAUUUCUUCCUUCCUUUGCAUGUCUCCUUCUUUCCUUUGUGUGUCUUUUCUGUCUGCAGUGUGUCUUACCUAUUCCCAUGUUUCUCCUGCAUGUUCUUUCUUGCAGAGCUUUGAGCUUUGUUUCACUUUCUCUGGUGCCUGUGUGGUCUGCUUUGUCUUCACUAGCUAUGGCUCUCUGU [Xist repeat E proximal]	binds more weakly	100 nM	–
GGGAGCUUGCUCCAGCCAUGUUUGCUCGUUUCCCGUGGAUGUGCGGUUCUUCCGUGGUUUCUCUCCAUCUAAGGAGCUUUGGGGGAACAUUUUUAGUUCCCCUACCACCAAGCCUUAUGGCUUAUUUAAGAAAACAUAUCAAAAUUCCACGAGAUUUUUGACGUUUUGAUAUGUUCUGGUAAGAUUUUUUUUUUGACAUGUCCUCCAUACUUUUUGAUAUUUGUAAUAUUUUCAGUCAAUUUUUCAUUUUUAAGGAAUAUUUCUUUGUUGUGCCUUUUGGUUGAUACUUGUGUGUGUAUGGUGGACUUACCUUUCUUUCAUUGUUUAUAUAUUCUUGCCCAUCGGGGCCACGGAUACCUGUGUGUCCUCCCCGCCAUUCCAUGCCCAACGGGGUUUUGGAUACUUACCUGCCUUUUCAUUCUUUUUUUUUCUUAUUAUUUUUUUUUCUAAACUUGCCCAUCUGGGCUGUGGAUACCUGCUUUUAUUCUUUUUUUCUUCUCCUUAG [Xist repeat A]	–	100 nM	binds more weakly
